{"source": "patent US20050107293A1", "about": "“Protein modification and maintenance molecules” (priority 2001, published 2005)", "key": {"liver C3A cells": {"tested_on": "liver C3A cells", "experiment": "Microarray analysis of SEQ ID NO:49 expression in steroid-treated C3A cells", "assay_type": "cell-based, human", "settings": "for decrease in expression of SEQ ID NO:5: early confluent C3A cells treated for 1, 3, or 6 hours, at a minimum of two out of the three time points; for differential expression of SEQ ID NO:49: liver C3A cells treated with one steroid, microarray", "description": "The human C3A cell line is a clonal derivative of HepG2/C3 and has been established as an in vitro model of the mature human liver (Mickelson et al. (1995) Hepatology 22:866-875; Nagendra et al. (1997) Am J Physiol 272:G408-G416). […] These experiments indicate that SEQ ID NO:49 is useful in diagnostic assays for liver diseases and as a potential biological marker and therapeutic agent in the treatment of liver diseases and disorders."}, "C3A cells": {"tested_on": "C3A cells", "experiment": "Microarray analysis of SEQ ID NO:59 expression in C3A cells treated with progesterone or budenoside", "assay_type": "cell-based, human", "settings": "early confluent C3A cells, at each time point (1, 3, and 6 hours), versus untreated C3A cells", "description": "The human C3A cell line is a clonal derivative of HepG2/C3 (hepatoma cell line, isolated from a person with liver tumor), which was selected for strong contact inhibition of growth. The use of a clonal population enhances the reproducibility of the cells. C3A cells have many characteristics of primary human hepatocytes in culture: i) expression of insulin receptor and insulin-like growth factor II receptor; ii) secretion of a high ratio of serum albumin compared with α-fetoprotein iii) conversion of ammonia to urea and glutamine; iv) metabolism of aromatic amino acids; and v) proliferation in glucose-free and insulin-free medium. The C3A cell line is now well established as an in vitro model of the mature human liver (Mickelson et al. (1995) Hepatology 22:866-875; Nagendra et al. (1997) Am J Physiol 272:G408-G416). Early Confluent C3A cells were treated with progesterone or budenoside at 1, 10, and 100 μM for 1, 3, and 6 hours. The treated cells were compared to untreated early confluent C3A cells. […] Therefore, SEQ ID NO:59 may be useful in monitoring of, and diagnostic assays for steroid hormone-induced responses."}}, "note": "For at least one compound, name, drawing or mass did not settle the structure. Some compounds share one wording; it may come from a single statement.", "data": [{"smiles": "C[C@H]1C[C@H]2[C@@H]3CCC4=CC(=O)C=C[C@]4(C)[C@@]3(F)[C@@H](O)C[C@]2(C)[C@@]1(O)C(=O)CO", "note": "[betamethasone]", "values": [{"measurement": "decrease in expression of SEQ ID NO:5", "setting": "liver C3A cells", "result": "at least a two-fold decrease"}]}, {"smiles": "CCCC1O[C@@H]2C[C@H]3[C@@H]4CCC5=CC(=O)C=C[C@]5(C)[C@H]4[C@@H](O)C[C@]3(C)[C@]2(C(=O)CO)O1", "note": "(stereo partly shown) [budesonide]", "values": [{"measurement": "decrease in expression of SEQ ID NO:5", "setting": "liver C3A cells", "result": "at least a two-fold decrease"}, {"measurement": "differential expression of SEQ ID NO:49", "setting": "liver C3A cells", "result": "differential expression"}, {"measurement": "expression of SEQ ID NO:59", "setting": "C3A cells; 10 μM", "result": "decreased by at least two-fold"}, {"measurement": "expression of SEQ ID NO:59", "setting": "C3A cells; 100 μM", "result": "decreased by at least two-fold"}]}, {"smiles": "C[C@@H]1C[C@H]2[C@@H]3CCC4=CC(=O)C=C[C@]4(C)[C@@]3(F)[C@@H](O)C[C@]2(C)[C@@]1(O)C(=O)CO", "note": "[dexamethasone]", "values": [{"measurement": "decrease in expression of SEQ ID NO:5", "setting": "liver C3A cells", "result": "at least a two-fold decrease"}, {"measurement": "differential expression of SEQ ID NO:49", "setting": "liver C3A cells", "result": "differential expression"}]}]}
